Test results published in the supplement of paper PMC12425257.
Where “and” joins values, the source holds several entries; their conditions need not be identical. Identical values can stand only once. ± gives the standard deviation of the averaged measurements. This is one part of the list.

Test system: Madurella mycetomatis MM55
Experiment: metabolic activity (growth) relative to DMSO growth control; higher = more fungal growth

SMILES | metabolic activity (1 µM) | metabolic activity (2 µM) | metabolic activity (10 µM) | metabolic activity (4 µM) [%] | metabolic activity (8 µM) [%]
CN1CCN(c2ccc(Nc3ncc4c(=O)n(-c5c(Cl)cccc5Cl)nc(-c5cccnc5Cl)c4n3)cc2)CC1.O=C(O)C(F)(F)F.O=C(O)C(F)(F)F | 103 ± 14% | 95.9 ± 32% | 124 ± 8.9% | – | –
C[C@H]1CC[C@@H](C(=O)Nc2ccccc2)CN1c1cc(-c2ccc3c(N)n[nH]c3c2)nc(N)n1 | 85.9 ± 4.6% | 104 ± 22% | 106 ± 25% | – | –
CCN(CC)S(=O)(=O)Nc1cccc(-c2ccc3c(NC(=O)C4CC4)n[nH]c3c2)c1 | 92.8 ± 36% | 101 ± 7.8% | 133 ± 21% | – | –
CCC(=O)Nc1cccc(Oc2nc(Nc3ccc(N4CCN(C)CC4)cc3OC)ncc2Cl)c1 | 97.8 ± 11% | 71.6 ± 0.97% | 76.7 ± 14% | – | –
CCC(NN(C)C)=C1C(=O)Nc2ccc(C(C)=O)cc21 | 108 ± 61% | 99.5 ± 18% | 102 ± 20% | – | –
CN1CCN(c2cccc(Nc3ncc4c(=O)n(-c5ccccc5Cl)c5nccn5c4n3)c2)CC1.O=C(O)C(F)(F)F.O=C(O)C(F)(F)F | 97 ± 20% | 99.9 ± 24% | 113 ± 22% | – | –
CC(C)COC(=O)c1ccc2c(c1)/C(=C/Nc1ccc(S(N)(=O)=O)cc1)C(=O)N2 | 99.7 ± 20% | 92.5 ± 33% | 96.5 ± 20% | – | –
Nc1n[nH]c2cc(-c3ccc4c(c3)OCCO4)ccc12 | 92.2 ± 34% | 85.6 ± 3.3% | 109 ± 5.8% | – | –
COc1ccc2cc(-c3c(-c4ccncc4)nc(-c4ccc(S(C)(=O)=O)cc4C)n3C)ccc2c1 | 99.6 ± 33% | 83.9 ± 2.9% | 91.5 ± 16% | – | –
CCn1c(-c2nonc2N)nc2c(C#CC(C)(C)O)nc(OCCNC)cc21.Cl | 125 ± 24% | 92.4 ± 21% | 94.9 ± 8% | – | –
CCOc1ccc2c(-c3ccnc(Nc4cc(OC)cc(C(F)(F)F)c4)n3)cnn2n1 | 119 ± 70% | 73.12 ± 0.59% | 121 ± 14% | – | –
CN1CCC(NC(=O)c2n[nH]cc2NC(=O)c2c(F)cccc2F)CC1 | 116 ± 8.8% | 125 ± 22% | 116 ± 2.1% | – | –
COc1cc(C)c(N(C)C(=O)CN(C)C)cc1Nc1nc(Nc2cccc(F)c2C(N)=O)c2cc[nH]c2n1 | 111 ± 8.8% | 73 ± 3.5% | 93.3 ± 19% | – | –
COc1cc(OC)cc(-c2cc3cnc(N)nc3nc2NC(=O)NC(C)(C)C)c1 | 80.4 ± 19% | 97.5 ± 9% | 97.6 ± 6.9% | – | –
Cc1ccc(CNC(=O)N2CCC[C@]3(CCN(Cc4ccc(Cl)c(Cl)c4)C3)C2)cc1 | 90.2 ± 24% | 90.4 ± 5.3% | 150 ± 3.5% | – | –
COCCNC(=O)c1ccc(-c2cc(C(=O)NC3CC3)cc(F)c2C)cc1 | 106 ± 34% | 80.5 ± 6.9% | 112 ± 1.5% | – | –
Cc1sc2ncnc(N)c2c1-c1ccc(NC(=O)c2cc3ccccc3[nH]2)cc1 | 102 ± 24% | 97.6 ± 19% | 117 ± 8.7% | – | –
O=C1Nc2ccc(C(=O)c3ccco3)cc2C1=Cc1cc(Cl)c(O)c(Cl)c1 | 87.7 ± 11% | 126 ± 2.6% | 124 ± 2.6% | – | –
C[C@@H]1CN(c2cc(-c3n[nH]c4ccc(OC5(C)CC5)cc34)ncn2)C[C@H](C)O1 | 87.7% and 106% | 80.1% and 98.2% | 88% and 103% | – | –
O=c1cc(N2CCOCC2)nc2n(Cc3ccccc3F)ccn12 | 86.9 ± 16% | 107 ± 14% | 92.9 ± 22% | – | –
CN1CCN(Cc2ccc3c(c2)Cc2c(-c4cccs4)n[nH]c2-3)CC1 | 106 ± 6.2% | 86.7 ± 32% | 97.8 ± 28% | – | –
COc1cc(N2CCN(C)CC2)ccc1Nc1ncc(Cl)c(Oc2cccc(NC(=O)C3CC3)c2)n1 | 106 ± 7.2% | 89.4 ± 17% | 77.1 ± 12% | – | –
CN(C)Cc1nc2c(sc3ccc(-c4ccc(OCCCN)cc4)cc32)c(=O)[nH]1 | 107 ± 3.8% | 62.6 ± 38% | 78.7 ± 8.6% | – | –

SMILES | metabolic activity (1 µM) | metabolic activity (2 µM) | metabolic activity (10 µM) | metabolic activity (4 µM) [%] | metabolic activity (8 µM) [%]
Cn1cc(-c2ccc(-c3cncc(Cl)c3N3CCC4(CCNC4=O)CC3)cc2)cn1 | 88.4 ± 26% | 115 ± 6.9% | 114 ± 18% | – | –
CCc1c(-c2nonc2N)nc2c(C#Cc3ccccc3)ccc(N3C[C@H](N)[C@@H](O)C3)n12 | 111 ± 39% | 107 ± 18% | 92.9 ± 20% | – | –
Cn1nc(N)c2c(-c3ccc(NC(=O)Nc4cccc(Cl)c4)cc3)cncc21 | 104 ± 12% | 70.1 ± 5.7% | 127 ± 14% | – | –
COC(=O)c1c(-c2ccccc2)c2cc(Br)ccc2c(=O)n1Cc1ccc(S(C)(=O)=O)cc1 | 89.8 ± 18% | 89.35 ± 0.37% | 108 ± 3.6% | – | –
CCOc1cc(N2CCC(O)CC2)ccc1Nc1ncc2c(n1)N(C)c1ccccc1C(=O)N2C | 95.4 ± 12% | 87.4 ± 10% | 90.4 ± 10% | – | –
Cc1cnc(Nc2ccc(F)cc2Cl)nc1-c1c[nH]c(C(=O)N[C@H](CO)c2cccc(Cl)c2)c1 [Vertex 11e] | 93.5 ± 20% | 82 ± 1.2% | 101 ± 36% | – | –
Cl.O=C(Nc1ccc(Oc2ccc3[nH]c(NC(=O)c4ccco4)nc3c2)cc1)Nc1cc(C(F)(F)F)ccc1F | 118 ± 24% | 111.35 ± 0.062% | 117 ± 8.9% | – | –
CN1CCN(Cc2ccc(-c3n[nH]c4c3Cc3ccccc3-4)cc2)CC1 | 96.2 ± 11% | 104 ± 39% | 90.8 ± 18% | – | –
C[C@@H](Oc1cc(-n2cnc3ccc(OC4CCN(C)CC4)cc32)sc1C(N)=O)c1ccccc1Cl | 97.8 ± 5.9% | 84.8 ± 6.3% | 99.1 ± 31% | – | –
Nc1nc(-c2ccccc2F)c(-c2ccnc3ccccc23)s1 | 94 ± 17% | 112 ± 38% | 48.8 ± 56% | – | –
Cc1cccc(-c2nc(Nc3ccncc3)c3ccccc3n2)n1 | 83.9 ± 14% | 74.6 ± 10% | 15.6 ± 3.7% | 198 ± 70 | 48.9 ± 21
O=C(Nc1n[nH]c2nc(-c3nccs3)c(Br)cc12)C1CCCC1 | 112 ± 12% | 93.8 ± 2.8% | 131 ± 63% | – | –
CCc1ccc(Oc2nccc(-c3c(-c4ccc(F)cc4)ncn3C3CCNCC3)n2)cc1 | 44.3 ± 41% | 99.1 ± 34% | 98.758 ± 0.056% | – | –
NCC1CCC(CNc2nc(NCc3ccccc3OC(F)(F)F)ncc2[N+](=O)[O-])CC1 (stereo not drawn) | 96.2 ± 35% | 82.2 ± 9.2% | 111 ± 35% | – | –
O=C(O)/C=C/C(=O)O.OCCCNc1nccc(-c2c(-c3ccc(F)cc3)nn3cc(C(F)(F)F)ccc23)n1 | 107 ± 21% | 72.5 ± 15% | 84.6 ± 3.8% | – | –
CNC(=O)c1ccc(C)c(-n2c(C)cc(OCc3ccc(F)cc3F)c(Br)c2=O)c1 | 124 ± 13% | 137 ± 18% | 98.9 ± 25% | – | –
COc1ccc(-c2cc3c(C)nc(N)nc3n([C@H]3CC[C@H](OCCO)CC3)c2=O)cn1 | 97.5 ± 14% | 84.5 ± 25% | 108 ± 25% | – | –
NC[C@@H](NC(=O)c1ccc(-c2cccnc2)cc1)c1ccccc1 | 119 ± 19% | 116 ± 3% | 106 ± 19% | – | –
Cc1cc(-c2cnc(N)c3c(-c4ccc5scnc5c4)csc23)n(C)n1 | 97.95 ± 0.27% | 90.1 ± 5.1% | 73.4 ± 50% | – | –
COc1cc(C=NNc2ncnc3c2cnn3-c2ccccc2)ccc1O | 97.3 ± 22% | 92.8 ± 5.1% | 101 ± 2.9% | – | –
NC(=O)c1cccnc1COc1cc(-c2ccc(N3CCOCC3)nc2)cc2ncccc12 | 106 ± 2.2% | 73.2 ± 14% | 95.5 ± 34% | – | –
CCc1nc(-c2cccc(C)c2)c(-c2ccncc2)s1 | 92.1 ± 20% | 80.6 ± 2.1% | 7.42 ± 1.7% | 43.9 ± 40 | 32.8 ± 33
O=CN1CCN(Cc2ccc3c(c2)Cc2c(-c4csc(C#CCOc5ccccc5)c4)n[nH]c2-3)CC1 | 118 ± 8.4% | 116 ± 4% | 101 ± 12% | – | –

SMILES | metabolic activity (1 µM) | metabolic activity (2 µM) | metabolic activity (10 µM) | metabolic activity (4 µM) [%] | metabolic activity (8 µM) [%]
CCOc1ccc2c(-c3ccnc(Nc4cccc(OC(F)(F)F)c4)n3)cnn2n1 | 96.9 ± 24% | 101 ± 46% | 96.4 ± 14% | – | –
Cc1c(Cn2c(C)nn3c(=O)cc(N4CCO[C@H](C)C4)nc23)cccc1C(F)(F)F | 87.9 ± 20% | 97.5 ± 25% | 97.1 ± 24% | – | –
COc1cc(-c2ccc3c(N)n[nH]c3c2)ccn1 | 83.4 ± 3.4% | 83.7 ± 17% | 81.6 ± 2.5% | – | –
Cc1cccc(-c2nc(Nc3ccc4ncoc4c3)c3ccccc3n2)n1 | 99 ± 34% | 75.6 ± 50% | 126 ± 18% | – | –
CN1c2ccccc2C(=O)Nc2cnc(Nc3ccc(S(=O)(=O)NCCCNC(=O)OC(C)(C)C)cc3)nc21 | 86.98 ± 0.86% | 109 ± 20% | 84.1 ± 11% | – | –
CCNC(=O)/C(C#N)=c1\sc(=CNc2ccc(F)c(NC(=O)CN3CCC(F)(F)CC3)c2)c(=O)n1CC | 82.5 ± 4.8% | 120 ± 16% | 91.8 ± 21% | – | –
Cc1cccc(-c2nc3cnccn3c2-c2ccnc(NC3CCCCC3)n2)c1 | 90.7 ± 5.8% | 109 ± 14% | 5.8 ± 0.78% | 177 ± 83 | 48.6 ± 11
Cc1cc2c(N)n[nH]c2cc1-c1cnn(Cc2ccccc2)c1 | 97 ± 15% | 96.9 ± 4.1% | 97.6 ± 6.1% | – | –
Nc1ncnc2occ(-c3ccc(NC(=O)Nc4cc(C(F)(F)F)ccc4F)cc3)c12 | 91.3 ± 23% | 105 ± 37% | 55.7 ± 14% | – | –
CCn1c(-c2nonc2N)nc2cncc(C(=O)N3CC[C@H](N)C3)c21.Cl | 124 ± 35% | 116 ± 8.7% | 111 ± 3.9% | – | –
COc1cc2c(cc1OC)Nc1cc(-c3ccc([N+](=O)[O-])c(OC)c3)ccc1C(=O)N2 | 96 ± 3.4% | 95 ± 5% | 79.6 ± 31% | – | –
O=C(Nc1ccc(NC(=O)C2CCCN(c3cccnn3)C2)cc1)c1ccncc1 (stereo not drawn) | 89.4 ± 14% | 76.4 ± 10% | 101 ± 28% | – | –
Fc1ccc(-c2nn3ccccc3c2-c2ccncc2)cc1 | 64.3 ± 19% | 67.2 ± 16% | 6.51 ± 0.53% | 43.2 ± 28 | 2.88 ± 4.4
CNC(=O)c1nn(C)c2c1C(C)(C)Cc1cnc(Nc3ccc(N4CCN(C)CC4)cc3C)nc1-2 | 122 ± 17% | 115 ± 20% | 117 ± 7.7% | – | –
CNC(=O)c1nn(C)c2c1C(C)(C)Cc1cnc(Nc3ccc(N4CCOCC4)cc3OC)nc1-2 | 101.2 ± 0.42% | 131 ± 44% | 11.7 ± 1.6% | 115 ± 16 | 48.6 ± 23
CN(C)C/C=C/C(=O)Nc1ccc(C(=O)N2CCC[C@@H](Nc3ncc(Cl)c(-c4c[nH]c5ccccc45)n3)C2)cc1 | 99.9 ± 25% | 66.9 ± 8.1% | 93 ± 8.8% | – | –
COc1cc2ncnc(Nc3cccc(Cl)c3F)c2cc1O[C@H]1CC[C@@]2(CC1)NCCNC2=O | 93.6 ± 7.9% | 105 ± 25% | 104 ± 7.8% | – | –
CCS(=O)(=O)c1ccc(OC)c(Nc2ncc(-c3cccc(F)c3)o2)c1 | 109 ± 30% | 67.08 ± 0.57% | 95.5 ± 45% | – | –
Nc1nccc(-c2c(-c3ccc(F)cc3)ncn2C2CCN(Cc3ccccc3)CC2)n1 | 97.3 ± 15% | 72.1 ± 6.9% | 30.8 ± 31% | 82.3 ± 20 | 14.6 ± 0.51
Nc1ncnc2c1N=C(c1ccccc1)CCN2 | 100 ± 24% | 75.5 ± 38% | 89.4 ± 14% | – | –
CN(C)CCNC(=O)Nc1ccc(N(C)c2ccnc(Nc3ccc(CS(C)(=O)=O)cc3)n2)cc1.Cl | 110 ± 44% | 110 ± 5% | 106 ± 28% | – | –
